Source: patent US20250387359A1, “COMPOUNDS AND METHODS FOR THE TREATMENT OF PARASITIC INFECTIONS” (THE BOARD OF TRUSTEES OF THE UNIVERSITY OF ILLINOIS, priority 2019, published 2025)

System: HCT-8 cells
Assay: Compound cytotoxicity assay (WST-1) in HCT-8 cells
Type: cell-based, human
Description: Compound cytotoxicity assay. […] A colorimetric assay using the cell proliferation reagent WST-1 (Roche, USA) for the quantification of cell viability was performed. […] When the cells were confluent, the old medium was replaced with fresh medium with or without varying concentrations of chemical compound. After 24 h of culture, 10 μl of the cell proliferation reagent WST-1, (for quantification of cell viability) was added to each well, mixed and the plates incubated for 1 h at 37 C with 5% CO2 in the dark. […] Molecular Devices, USA).

Structure (SMILES): COc1cc2c(c(OC)c1OC)-c1ccc(OC)c(=O)cc1[C@@H](N)CC2 [NSC36354]
- IC50: 81.8 µM
